In article PMC8913689:
These are yes or no findings as the source states them, for the method shown. Binding seen in cells or lysates may run through a third protein. Some binding calls cover weakened binding; strength is not graded here.

Protein sequences, listed by entry. Tags and fused reporters are not part of them.
UniProt P42866: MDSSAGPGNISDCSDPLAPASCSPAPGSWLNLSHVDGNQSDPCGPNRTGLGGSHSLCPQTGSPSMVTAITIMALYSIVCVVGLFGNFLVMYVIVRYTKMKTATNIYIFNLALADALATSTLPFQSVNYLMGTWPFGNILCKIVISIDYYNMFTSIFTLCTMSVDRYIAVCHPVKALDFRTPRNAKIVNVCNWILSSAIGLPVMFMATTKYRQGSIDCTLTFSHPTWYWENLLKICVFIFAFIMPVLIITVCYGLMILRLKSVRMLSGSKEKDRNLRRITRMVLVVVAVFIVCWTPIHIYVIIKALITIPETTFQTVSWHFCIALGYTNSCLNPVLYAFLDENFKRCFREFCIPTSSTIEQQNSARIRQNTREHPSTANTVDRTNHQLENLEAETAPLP

Target: HA-μ-Opioid receptor (UniProt P42866)
Assay: co-IP; lysate of transfected WTT-CHO cells (0.5% DDM, 140 mM NaCl, 2 mM EDTA, 25 mM Tris pH 7.4) immunoprecipitated overnight at 4 °C with anti-HA (16B12) on Protein G Dynabeads; Western blot with anti-HA; SDS-resistant oligomer bands read beside the monomer

- binding: binds
Substance: HA-μ-Opioid receptor (from UniProt P42866 1-398)
